Results are given in words; binding and its absence hold for the method and conditions named. In cells and extracts the contact can be indirect. Some results given as binding are weak or reduced against the parent protein; the word gives no strength. Tags and fused reporters may be left off the sequences shown.
Molecular target: GABAA receptor α1β2 (GABAA receptor subunits α1 and β2) (UniProt P14867)
Assay: co-IP; HEK293 lysates (1% Triton X-100, 50 mM Tris pH 7.5); precipitated with antibody to GABAAR β2 (β2/3) cross-linked to protein A/G-agarose, blotted for ASIC1a; cells co-transfected with HA-ASIC1a and GABAAR α1β2 (reversed co-IP) or transfected with GABAAR α1β2 only (endogenous ASIC1a)

Chains of the proteins cited; added tags and fusions are not shown. Lines headed by an entry give the natural chain unless they say otherwise; changes in a name come on top.
UniProt P14867: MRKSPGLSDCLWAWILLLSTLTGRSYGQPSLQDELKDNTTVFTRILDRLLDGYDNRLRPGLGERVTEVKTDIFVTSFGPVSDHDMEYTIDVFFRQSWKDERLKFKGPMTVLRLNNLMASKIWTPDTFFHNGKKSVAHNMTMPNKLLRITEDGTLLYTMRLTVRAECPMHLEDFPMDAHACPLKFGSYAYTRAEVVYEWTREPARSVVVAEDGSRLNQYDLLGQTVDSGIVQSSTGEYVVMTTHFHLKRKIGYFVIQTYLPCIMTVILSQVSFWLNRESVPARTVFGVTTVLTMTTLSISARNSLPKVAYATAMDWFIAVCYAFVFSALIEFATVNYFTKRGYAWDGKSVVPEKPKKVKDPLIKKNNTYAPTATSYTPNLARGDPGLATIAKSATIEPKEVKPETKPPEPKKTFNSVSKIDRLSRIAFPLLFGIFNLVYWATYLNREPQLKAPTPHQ

Row | binding | Binder
1 | binds | ASIC1a with HA tag (protein, UniProt P78348-2 1-528) MELKAEEEEVGGVQPVSIQAFASSSTLHGLAHIFSYERLSLKRALWALCFLGSLAVLLCVCTERVQYYFHYHHVTKLDEVAASQLTFPAVTLCNLNEFRFSQVSKNDLYHAGELLALLNNRYEIPDTQMADEKQLEILQDKANFRSFKPKPFNMREFYDRAGHDIRDMLLSCHFRGEVCSAEDFKVVFTRYGKCYTFNSGRDGRPRLKTMKGGTGNGLEIMLDIQQDEYLPVWGETDETSFEAGIKVQIHSQDEPPFIDQLGFGVAPGFQTFVACQEQRLIYLPPPWGTCKAVTMDSDLDFFDSYSITACRIDCETRYLVENCNCRMVHMPGDAPYCTPEQYKECADPALDFLVEKDQEYCVCEMPCNLTRYGKELSMVKIPSKASAKYLAKKFNKSEQYIGENILVLDIFFEVLNYETIEQKKAYEIAGLLGDIGGQMGLFIGASILTVLELFDYAYEVIKHKLCRRGKCQKEAKRSSADKGVALSLDDVKRHNPCESLRGHPAGMTYAANILPHHPARGTFEDFTC
2 | binds | endogenous ASIC1a of HEK293 cells (protein, UniProt P78348-2 1-528) MELKAEEEEVGGVQPVSIQAFASSSTLHGLAHIFSYERLSLKRALWALCFLGSLAVLLCVCTERVQYYFHYHHVTKLDEVAASQLTFPAVTLCNLNEFRFSQVSKNDLYHAGELLALLNNRYEIPDTQMADEKQLEILQDKANFRSFKPKPFNMREFYDRAGHDIRDMLLSCHFRGEVCSAEDFKVVFTRYGKCYTFNSGRDGRPRLKTMKGGTGNGLEIMLDIQQDEYLPVWGETDETSFEAGIKVQIHSQDEPPFIDQLGFGVAPGFQTFVACQEQRLIYLPPPWGTCKAVTMDSDLDFFDSYSITACRIDCETRYLVENCNCRMVHMPGDAPYCTPEQYKECADPALDFLVEKDQEYCVCEMPCNLTRYGKELSMVKIPSKASAKYLAKKFNKSEQYIGENILVLDIFFEVLNYETIEQKKAYEIAGLLGDIGGQMGLFIGASILTVLELFDYAYEVIKHKLCRRGKCQKEAKRSSADKGVALSLDDVKRHNPCESLRGHPAGMTYAANILPHHPARGTFEDFTC
